Measurements reported in PubChem BioAssay AID1053209 (Peter MacCallum Cancer Centre, 2014).
This is an unselected part of about 1,580 deposited reagents. In the full data, 207 (13%) are marked active. 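Rows are single siRNAs; four siRNAs per gene were tested, a gene counting as confirmed only when at least two agree.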 The numbers tell different reagents against one gene apart. No sequences are given here.

- Purpose: 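Knock-downs that sensitise mouse osteosarcoma cells to doxorubicin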 (follow-up of hits)
- Cell system: mouse primary osteosarcoma cells
- Reagents: single siRNA against mouse genes, 25 nM (text also states 40 nM)
- Duration: about 120 h (48 h before drug, then 72 h with drug)
- Conditions: doxorubicin 100 nM (about IC30-40), added 48 h after transfection, for 72 h
- Detection: 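Viability measured by ATP luminescence with and without doxorubicin, each replicate scaled to non-targeting siRNA NT1, averaged over two replicates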
- Direction: viability with doxorubicin, vs NT1: higher = more viable cells under doxorubicin; viability ratio, doxorubicin over no drug: higher = less sensitisation to doxorubicin; viability without drug, vs NT1: higher = more viable cells without drug
- Hit rule: 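Counted as active (class LC dox) if viability falls to 0.7 of NT1 or below under doxorubicin but stays within 0.7 to 1.1 without drug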

gene knocked down	reagent no.	combined effect class	viability with doxorubicin, vs NT1	viability ratio, doxorubicin over no drug	viability without drug, vs NT1	call
Rpl31	1	high viability with and without drug	1.25	1.12	1.12	inactive
Rpl31	2	low viability with and without drug	0.33	0.65	0.51	inactive
Rpl31	3	low viability only with doxorubicin; normal without drug	0.68	0.79	0.86	active
Rpl31	4	low viability with and without drug	0.3	0.68	0.44	inactive
Prps1l1	1	high viability only without drug	1.04	0.9	1.15	inactive
Prps1l1	2	normal viability with and without drug	1.01	0.98	1.03	inactive
Prps1l1	3	low viability only with doxorubicin; normal without drug	0.62	0.76	0.82	active
Prps1l1	4	normal viability with and without drug	0.97	0.93	1.04	inactive
Zfp184	1	normal viability with and without drug	0.96	1	0.96	inactive
Zfp184	2	high viability only with doxorubicin	1.12	1.11	1.01	inactive
Zfp184	3	high viability only with doxorubicin	1.17	1.07	1.09	inactive
Zfp184	4	normal viability with and without drug	0.93	0.92	1.01	inactive
Coq3	1	high viability only with doxorubicin	1.1	1.01	1.09	inactive
Coq3	2	high viability only with doxorubicin	1.1	1.1	1	inactive
Coq3	3	normal viability with and without drug	0.8	0.96	0.83	inactive
Coq3	4	normal viability with and without drug	0.79	0.92	0.86	inactive
Nipbl	1	low viability only with doxorubicin; normal without drug	0.68	0.94	0.72	active
Nipbl	2	normal viability with and without drug	0.84	1.04	0.81	inactive
Nipbl	3	normal viability with and without drug	0.78	0.8	0.98	inactive
Nipbl	4	normal viability with and without drug	0.82	0.94	0.87	inactive
Rasgef1b	1	high viability only with doxorubicin	1.15	1.22	0.94	inactive
Rasgef1b	2	normal viability with and without drug	0.84	0.87	0.97	inactive
Rasgef1b	3	normal viability with and without drug	1.02	1.05	0.97	inactive
Rasgef1b	4	normal viability with and without drug	0.86	0.96	0.9	inactive
Lrp2bp	1	high viability only without drug	0.92	0.81	1.14	inactive
Lrp2bp	2	normal viability with and without drug	0.92	0.9	1.02	inactive
Lrp2bp	3	normal viability with and without drug	0.73	0.79	0.92	inactive
Lrp2bp	4	normal viability with and without drug	1.01	0.97	1.04	inactive
Dennd2c	1	normal viability with and without drug	1.03	1.01	1.02	inactive
Dennd2c	2	normal viability with and without drug	0.98	0.96	1.02	inactive
Dennd2c	3	normal viability with and without drug	1.07	0.99	1.08	inactive
Dennd2c	4	normal viability with and without drug	0.9	0.87	1.04	inactive
Sars1	1	low viability only with doxorubicin; normal without drug	0.69	0.95	0.73	active
Sars1	2	normal viability with and without drug	1	0.97	1.03	inactive
Sars1	3	low viability with and without drug	0.53	0.9	0.59	inactive
Sars1	4	high viability only with doxorubicin	1.14	1.08	1.06	inactive
Arcn1	1	low viability with and without drug	0.5	0.74	0.68	inactive
Arcn1	2	low viability only with doxorubicin; normal without drug	0.24	0.31	0.78	active
Arcn1	3	low viability with and without drug	0.06	0.2	0.3	inactive
Arcn1	4	low viability with and without drug	0.18	0.39	0.46	inactive

Already shown: an excerpt of the list.
gene knocked down	reagent no.	combined effect class	viability with doxorubicin, vs NT1	viability ratio, doxorubicin over no drug	viability without drug, vs NT1	call
Rpl31	3	low viability only with doxorubicin; normal without drug	0.68	0.79	0.86	active
Rpl31	4	low viability with and without drug	0.3	0.68	0.44	inactive
Prps1l1	1	high viability only without drug	1.04	0.9	1.15	inactive
Prps1l1	2	normal viability with and without drug	1.01	0.98	1.03	inactive
Prps1l1	3	low viability only with doxorubicin; normal without drug	0.62	0.76	0.82	active
Prps1l1	4	normal viability with and without drug	0.97	0.93	1.04	inactive
Zfp184	1	normal viability with and without drug	0.96	1	0.96	inactive
Zfp184	2	high viability only with doxorubicin	1.12	1.11	1.01	inactive
Zfp184	3	high viability only with doxorubicin	1.17	1.07	1.09	inactive
Zfp184	4	normal viability with and without drug	0.93	0.92	1.01	inactive

The listing continues.
gene knocked down	reagent no.	combined effect class	viability with doxorubicin, vs NT1	viability ratio, doxorubicin over no drug	viability without drug, vs NT1	call
Slc16a6	1	normal viability with and without drug	0.78	0.89	0.88	inactive
Slc16a6	2	normal viability with and without drug	0.98	0.96	1.02	inactive
Slc16a6	3	normal viability with and without drug	0.92	0.94	0.98	inactive
Slc16a6	4	normal viability with and without drug	0.99	0.97	1.02	inactive
Rpl27	1	low viability only with doxorubicin; normal without drug	0.63	0.76	0.83	active
Rpl27	2	normal viability with and without drug	0.72	0.9	0.8	inactive
Rpl27	3	low viability only with doxorubicin; normal without drug	0.55	0.68	0.81	active
Rpl27	4	low viability only with doxorubicin; normal without drug	0.67	0.93	0.72	active
Arfgap1	1	normal viability with and without drug	0.9	0.99	0.91	inactive
Arfgap1	2	normal viability with and without drug	0.99	1.1	0.9	inactive
Arfgap1	3	normal viability with and without drug	0.9	1.02	0.88	inactive
Arfgap1	4	normal viability with and without drug	0.82	0.85	0.96	inactive
Mov10	1	high viability only without drug	1.04	0.93	1.12	inactive
Mov10	2	normal viability with and without drug	0.98	0.94	1.04	inactive
Mov10	3	normal viability with and without drug	0.88	0.88	1	inactive
Mov10	4	normal viability with and without drug	0.97	0.97	1	inactive
Reg2	1	low viability with and without drug	0.38	1.06	0.36	inactive
Reg2	2	normal viability with and without drug	0.95	1.04	0.91	inactive
Reg2	3	normal viability with and without drug	1.04	1.13	0.92	inactive
Reg2	4	high viability only with doxorubicin	1.12	1.06	1.06	inactive
Psma6	1	low viability with and without drug	0.35	0.67	0.52	inactive
Psma6	2	normal viability with and without drug	0.72	0.81	0.89	inactive
Psma6	3	low viability with and without drug	0.11	0.48	0.23	inactive
Psma6	4	low viability with and without drug	0.15	0.48	0.31	inactive
Snu13	1	low viability with and without drug	0.15	0.31	0.48	inactive
Snu13	2	normal viability with and without drug	1.03	1.13	0.91	inactive
Snu13	3	normal viability with and without drug	1	1	1	inactive
Snu13	4	low viability with and without drug	0.08	0.29	0.28	inactive
Prpf31	1	normal viability with and without drug	0.76	0.93	0.82	inactive
Prpf31	2	normal viability with and without drug	1.05	1.17	0.9	inactive
Prpf31	3	low viability only without drug	0.94	1.42	0.66	inactive
Prpf31	4	normal viability with and without drug	0.89	0.96	0.93	inactive
Rasa2	1	normal viability with and without drug	1.07	1.07	1	inactive
Rasa2	2	normal viability with and without drug	0.99	0.92	1.08	inactive
Rasa2	3	normal viability with and without drug	1.09	1.06	1.03	inactive
Rasa2	4	normal viability with and without drug	1.06	1.08	0.98	inactive
